Counter-ions that a name gives are not always drawn. ± gives the standard deviation of the averaged measurements. The list shows a part of the results. These are raw signals, not scaled to a control.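 Across three biological replicates, HeLa cells were imaged for ribosome assembly using ENP1 staining (export block present or absent) or inducible tagged ribosomal protein reporters. Machine learning classified each cell's signal localization relative to DMSO controls. Hits exceeded the DMSO false-positive mean by five standard deviations and were then visually confirmed.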
Columns and labels:
[1] = test system: HeLa K (ENP1 immunofluorescence, +LMB); assay: fraction of cells with nucleolar or nucleolar/nucleoplasmic ENP1 signal (MainHitrate); higher = more cells with nucleolar/nuclear readout signal (for ENP1 -LMB: less RNAPI inhibition; for +LMB ENP1 and RP reporters: stronger nuclear/nucleolar retention, i.e. ribosome biogenesis defect); conditions: concentration: 1 µM; treatment time: 6 h; ENP1 +LMB; leptomycin B: 20 nM, last 1.5 h
[2] = test system: HeLa K (ENP1 immunofluorescence, no LMB); assay: as above; conditions: concentration: 1 µM; treatment time: 6 h; ENP1 -LMB; leptomycin B: none
HeLa RPS2-YFP reporter = assay: fraction of reporter-positive cells with nuclear (nucleolar or nucleolar/nucleoplasmic) RPS2-YFP (MainHitrate); higher = more cells with nucleolar/nuclear readout signal (for ENP1 -LMB: less RNAPI inhibition; for +LMB ENP1 and RP reporters: stronger nuclear/nucleolar retention, i.e. ribosome biogenesis defect); conditions: concentration: 1 µM; treatment time: 6 h
HeLa RPL29-GFP reporter = assay: fraction of reporter-positive cells with nuclear (nucleolar or nucleolar/nucleoplasmic) RPL29-GFP (MainHitrate); higher = more cells with nucleolar/nuclear readout signal (for ENP1 -LMB: less RNAPI inhibition; for +LMB ENP1 and RP reporters: stronger nuclear/nucleolar retention, i.e. ribosome biogenesis defect); conditions: concentration: 1 µM; treatment time: 6 h

| Structure (SMILES) | fraction [1] | fraction [2] | fraction of reporter-positive cells with nuclear (HeLa RPS2-YFP reporter) | fraction of reporter-positive cells with nuclear (HeLa RPL29-GFP reporter) |
| --- | --- | --- | --- | --- |
| CN(C)CCc1c[nH]c2ccc(Cn3cncn3)cc12 [Rizatriptan Benzoate (Maxalt)] | 0.0972 ± 0.088 | 0.9982 ± 0.0031 | 0.11 ± 0.074 | 0.2 ± 0.074 |
| CC1=C(/C=C/C(C)=C/C=C/C(C)=C\C(=O)O)C(C)(C)CCC1 [Isotretinoin] | 0.0964 ± 0.1 | 0.9994 ± 0.0011 | 0.11 ± 0.062 | 0.215 ± 0.05 |
| O=c1[nH]c(=O)n([C@H]2C[C@H](O)[C@@H](CO)O2)cc1F [Floxuridine] | 0.037 ± 0.017 | 0.9988 ± 0.0022 | 0.0607 ± 0.04 | 0.263 ± 0.16 |
| c1ccc(C2CN3CCSC3=N2)cc1 (centres undefined) [Tetramisole HCl] | 0.0619 ± 0.081 | 0.984 ± 0.029 | 0.122 ± 0.097 | 0.219 ± 0.059 |
| CNC(=O)c1cc(Oc2ccc(NC(=O)Nc3ccc(Cl)c(C(F)(F)F)c3)c(F)c2)ccn1 [Regorafenib (BAY 73-4506)] | 0.0733 ± 0.039 | 0.9983 ± 0.003 | 0.0939 ± 0.093 | 0.238 ± 0.083 |
| C[C@](N)(Cc1ccc(O)c(O)c1)C(=O)O [Methyldopa (Aldomet)] | 0.123 ± 0.14 | 0.9991 ± 0.0015 | 0.141 ± 0.097 | 0.211 ± 0.08 |

Source: the supplement of paper PMC12542422
